Some entries share one result that the patent states for a list of compounds.
System: nitric oxide production
Experiment: Nitric oxide production in LPS/IFNγ-treated RAW 264.7 cells (Nitrate/Nitrite assay, Griess reagent)
Assay type: cell-based
Conditions: final concentration 3, 5, or 6 μM; LPS (5 ug/ml)/IFNγ (20 ng/ml); 18-24 h

Row | SMILES | inhibition of production of NO
1 | COc1cc2c3c[n+]4c(cc3c3cc(OC)c(OC)c(OC)c3c2cc1OC)CCC4 [Compound 1] | inhibited
2 | COc1cc2c3c(c4cc(OC)c(OC)cc4c2cc1OC)CN1CCC[C@H]1C3 [Compound 2] | inhibited
3 | COc1cc2c3cc(OC)c(OC)cc3c3c[n+]4c(cc3c2cc1OC)CCC4 [Compound 3] | inhibited
4 | COc1cc2c3c(c4cc(OC)c(OC)c(OC)c4c2cc1OC)[C@H](O)[C@@H]1CCC[N+]1([O-])C3 (stereo partly shown) [Compound 4] | inhibited

From patent publication US7652027B2, “Phenanthroindolizidine alkaloids” (National Health Research Institutes, priority 2005, dated 2010)
